This test addresses p53 (human (endogenous in U2OS)) (UniProt P04637). Nature of the test: co-IP; U2OS whole cell extracts (RIPA) incubated with anti-p53 antibody at 4°C for 3 h, then Protein A/G-Sepharose for 3 h; western blotting; cells untreated or treated with ETO (10 µM, 12 h), Jas (50 nM), CD (0.01 µg/ml), or transfected with actin or actin siRNA.

Results are given in words; binding and its absence hold for the method and conditions named. In cells and extracts the contact can be indirect. Some results given as binding are weak or reduced against the parent protein; the word gives no strength.

B1: Aurora kinase A (enzyme, UniProt O14965 1-403)
chain: MDRSKENCISGPVKATAPVGGPKRVLVTQQFPCQNPLPVNSGQAQRVLCPSNSSQRIPLQAQKLVSSHKPVQNQKQKQLQATSVPHPVSRPLNNTQKSKQPLPSAPENNPEEELASKQKNEESKKRQWALEDFEIGRPLGKGKFGNVYLAREKQSKFILALKVLFKAQLEKAGVEHQLRREVEIQSHLRHPNILRLYGYFHDATRVYLILEYAPLGTVYRELQKLSKFDEQRTATYITELANALSYCHSKRVIHRDIKPENLLLGSAGELKIADFGWSVHAPSSRRTTLCGTLDYLPPEMIEGRMHDEKVDLWSLGVLCYEFLVGKPPFEANTYQETYKRISRVEFTFPDFVTEGARDLISRLLKHNPSQRPMLREVLEHPWITANSSKPSNCQNKESASKQS
Turning to B1, the binding entry was “binds”.

The record behind these values is PMC3615075.
